These results are taken from paper PMC7884074.

By UniProt entry, the sequences of proteins in these tests, tags left out. Where a name states a change or a piece, a line headed by the entry shows the natural chain unless it says otherwise.
UniProt Q23096: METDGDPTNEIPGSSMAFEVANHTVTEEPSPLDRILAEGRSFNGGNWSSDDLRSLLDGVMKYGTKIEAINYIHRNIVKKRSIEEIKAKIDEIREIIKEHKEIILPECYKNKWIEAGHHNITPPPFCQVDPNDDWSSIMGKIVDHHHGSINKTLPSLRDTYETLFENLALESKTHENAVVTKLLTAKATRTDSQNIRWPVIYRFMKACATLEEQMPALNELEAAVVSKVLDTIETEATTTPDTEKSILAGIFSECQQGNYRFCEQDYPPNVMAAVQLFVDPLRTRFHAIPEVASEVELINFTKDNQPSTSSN

Results are given in words; binding and its absence hold for the method and conditions named. In cells and extracts the contact can be indirect. These calls come from enrichment with a bait or labelling near it, and not all partners need be listed. For some of these results: No binding means not detected with the bait. Sequences can lack the tags named with a protein.

In assay [1] the target is T1, SNPC-4::3xFlag (C. elegans) (UniProt P91868).
T1 sequence: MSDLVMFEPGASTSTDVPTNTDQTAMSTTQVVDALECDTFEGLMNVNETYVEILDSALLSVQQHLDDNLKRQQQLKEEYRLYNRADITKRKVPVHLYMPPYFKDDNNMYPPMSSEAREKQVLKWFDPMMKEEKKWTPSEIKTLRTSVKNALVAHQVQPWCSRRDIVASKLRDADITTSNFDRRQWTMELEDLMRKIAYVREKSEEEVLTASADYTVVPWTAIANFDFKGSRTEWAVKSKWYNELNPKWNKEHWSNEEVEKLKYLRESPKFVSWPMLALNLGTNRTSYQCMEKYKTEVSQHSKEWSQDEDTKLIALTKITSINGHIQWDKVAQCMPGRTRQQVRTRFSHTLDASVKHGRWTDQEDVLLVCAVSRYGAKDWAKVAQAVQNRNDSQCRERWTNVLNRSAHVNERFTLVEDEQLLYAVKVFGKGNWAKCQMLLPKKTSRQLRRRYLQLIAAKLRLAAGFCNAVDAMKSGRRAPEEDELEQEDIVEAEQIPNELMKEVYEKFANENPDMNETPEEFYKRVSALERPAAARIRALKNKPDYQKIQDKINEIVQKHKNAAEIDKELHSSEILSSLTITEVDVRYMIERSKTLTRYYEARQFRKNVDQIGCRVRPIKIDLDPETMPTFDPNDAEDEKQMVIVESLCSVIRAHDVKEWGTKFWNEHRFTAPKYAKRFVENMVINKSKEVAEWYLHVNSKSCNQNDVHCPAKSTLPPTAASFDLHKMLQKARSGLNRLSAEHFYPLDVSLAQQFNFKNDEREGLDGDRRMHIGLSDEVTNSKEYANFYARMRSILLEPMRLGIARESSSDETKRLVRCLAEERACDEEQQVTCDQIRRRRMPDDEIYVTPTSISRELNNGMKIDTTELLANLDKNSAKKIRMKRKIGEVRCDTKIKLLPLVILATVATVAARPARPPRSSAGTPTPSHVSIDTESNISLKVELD
Nature of the assay: affinity purification with mass spectrometry; anti-Flag (M2 crosslinked to Protein G Dynabeads) IP of SNPC-4::3xFlag from lysate of fem-1(hc17) females grown at 25°C; no-tag fem-1(-) control; benzonase-treated lysate, 50 mM Tris-HCl pH 8.0, 150 mM NaCl, 5 mM MgCl2, 1 mM EGTA, 0.1% NP-40, 10% glycerol; FLAG peptide elution; n = 2 biological replicates.

For assay [2], the target named is T1, SNPC-4::3xFlag (C. elegans). Nature of the assay: affinity purification with mass spectrometry; anti-Flag (M2 crosslinked to Protein G Dynabeads) IP of SNPC-4::3xFlag from lysate of him-8(e1489) L4 worms grown at 25°C; no-tag him-8(-) control; benzonase-treated lysate, 50 mM Tris-HCl pH 8.0, 150 mM NaCl, 5 mM MgCl2, 1 mM EGTA, 0.1% NP-40, 10% glycerol; FLAG peptide elution; n = 2 biological replicates.

Regarding SNPC-1.3 (C. elegans), the binding result is “no binding (only in feminized fem-1(-) mutants)” in assay [1] and “binds” in assay [2].
The matching figures for TOFU-5 (from UniProt Q23096): “binds” and “binds”.
